Results reported in publication PMC6392097.
Where two headings read alike, the source gives them in different places. Results are given in words; binding and its absence hold for the method and conditions named. Binding seen in cells or lysates may run through a third protein. Here binding means that the protein was enriched with, or labelled near, the bait; the list need not be complete.

Chains of the proteins cited; added tags and fusions are not shown.
UniProt O77059: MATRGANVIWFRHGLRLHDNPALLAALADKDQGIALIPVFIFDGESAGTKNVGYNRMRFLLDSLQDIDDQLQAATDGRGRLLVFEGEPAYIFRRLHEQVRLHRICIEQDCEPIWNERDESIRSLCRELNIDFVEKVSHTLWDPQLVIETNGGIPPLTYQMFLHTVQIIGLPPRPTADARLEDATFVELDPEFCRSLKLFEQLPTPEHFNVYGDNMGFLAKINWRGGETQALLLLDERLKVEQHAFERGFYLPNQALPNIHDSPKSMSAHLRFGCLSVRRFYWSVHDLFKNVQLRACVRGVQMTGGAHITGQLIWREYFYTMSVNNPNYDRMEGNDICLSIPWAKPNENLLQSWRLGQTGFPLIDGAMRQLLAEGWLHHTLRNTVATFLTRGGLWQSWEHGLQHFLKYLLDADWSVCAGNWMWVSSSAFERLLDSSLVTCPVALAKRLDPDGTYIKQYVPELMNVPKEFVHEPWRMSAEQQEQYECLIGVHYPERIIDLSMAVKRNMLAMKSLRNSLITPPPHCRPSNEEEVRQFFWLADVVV
UniProt Q9VHP0: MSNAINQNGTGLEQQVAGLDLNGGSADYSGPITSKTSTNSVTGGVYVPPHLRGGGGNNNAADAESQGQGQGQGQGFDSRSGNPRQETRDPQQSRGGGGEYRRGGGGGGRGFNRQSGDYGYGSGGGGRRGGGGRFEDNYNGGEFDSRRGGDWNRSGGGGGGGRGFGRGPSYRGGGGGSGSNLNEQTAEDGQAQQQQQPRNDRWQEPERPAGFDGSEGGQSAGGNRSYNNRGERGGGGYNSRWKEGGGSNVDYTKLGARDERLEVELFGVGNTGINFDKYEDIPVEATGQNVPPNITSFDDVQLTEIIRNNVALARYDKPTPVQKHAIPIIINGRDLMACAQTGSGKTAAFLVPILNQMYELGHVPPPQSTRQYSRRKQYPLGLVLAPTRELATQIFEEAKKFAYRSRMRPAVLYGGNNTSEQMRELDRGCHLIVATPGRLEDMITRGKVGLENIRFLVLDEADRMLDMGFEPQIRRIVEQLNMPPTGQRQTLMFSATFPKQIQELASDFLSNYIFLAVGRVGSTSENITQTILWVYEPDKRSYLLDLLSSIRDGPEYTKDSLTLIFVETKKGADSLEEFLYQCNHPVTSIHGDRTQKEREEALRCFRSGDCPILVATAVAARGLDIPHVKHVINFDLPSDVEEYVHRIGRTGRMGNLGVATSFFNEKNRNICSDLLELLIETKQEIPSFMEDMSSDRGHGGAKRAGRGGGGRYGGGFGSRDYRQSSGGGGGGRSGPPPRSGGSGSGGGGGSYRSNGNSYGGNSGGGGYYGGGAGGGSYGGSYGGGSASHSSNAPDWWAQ

Tests used:
[1] = molecular target: hemagglutinin (HA)-tagged form of dCRY (Drosophila melanogaster) (UniProt O77059); assay: affinity purification with mass spectrometry; head extracts of HACRY-overexpressing flies, anti-HA co-immunoprecipitation, Coomassie-stained bands digested in-gel, LC-MS/MS (ESI-QTOF, MASCOT); flies in 12:12 LD collected at ZT24 in the dark and after a 15-min light pulse; control yw;tim-GAL4
[2] = molecular target: hemagglutinin (HA)-tagged form of dCRY (Drosophila melanogaster) (UniProt O77059); assay: as above; remark: listed apart in the source

BELLE, DEAD box RNA helicase (from UniProt Q9VHP0 1-798)
binding [1]: binds

B1: ME31B (protein, UniProt P23128 1-459)
chain: MMTEKLNSGHTNLTSKGIINDLQIAGNTSDDMGWKSKLKLPPKDNRFKTTDVTDTRGNEFEEFCLKRELLMGIFEKGWERPSPIQEAAIPIALSGKDVLARAKNGTGKTGAYCIPVLEQIDPTKDYIQALVMVPTRELALQTSQICIELAKHLDIRVMVTTGGTILKDDILRIYQKVQLIIATPGRILDLMDKKVADMSHCRILVLDEADKLLSLDFQGMLDHVILKLPKDPQILLFSATFPLTVKNFMEKHLREPYEINLMEELTLKGVTQYYAFVQERQKVHCLNTLFSKLQINQSIIFCNSTQRVELLAKKITELGYCCYYIHAKMAQAHRNRVFHDFRQGLCRNLVCSDLFTRGIDVQAVNVVINFDFPRMAETYLHRIGRSGRFGHLGIAINLITYEDRFDLHRIEKELGTEIKPIPKVIDPALYVANVGASVGDTCNNSDLNNSANEEGNVSK
binding [2]: binds
